Some entries share one result that the patent states for a list of compounds.
System: human LOX-IMVI melanoma cell xenografts
Test: Tumor growth inhibition in mice with human LOX-IMVI melanoma xenografts
Assay type: in vivo
Settings: peginterferon alfa-2a 450 μg 1×/wk sc (days 6 and 13), monotherapy, 10 mice; listed as peginterferon alfa-2a
Protocol: Mice were implanted with human LOX-IMVI melanoma cell xenografts. The mice, cell line used, and implantation are described below.
Female athymic Crl:NU-Foxn1nu mice were used for efficacy testing (Charles River, Wilmington, Mass., USA). Mice were 10-12 weeks of age and weighed 23-25 grams. The health of the mice was assessed daily by observation and analysis of blood samples taken from sentinel animals on shared shelf racks. All animals were allowed to acclimate and recover from shipping-related stress for one week. Autoclaved water and irradiated food (5058-ms Pico Lab mouse chow, Purina Mills, Richmond, Ind., USA) were provided ad libitum, and the animals were kept in a 12 hour light and dark cycle. […]
Tumor volume (in cubic millimeters) was calculated using the ellipsoid formula: (D×(d^2))/2, where “D” represents the large diameter of the tumor and “d” represents the small diameter.
Also, tumor regression and/or percent change in tumor volume was calculated using the formula: ((T−T0)/T0)×100, where ‘T’ represents mean tumor volume of the treated group at a particular day, and ‘T0’ represents mean tumor volume of the same treated group at initiation of treatment.
Statistical analysis was determined by the rank sum test and One Way Anova and a post-hoc Bonferroni t-test (SigmaStat, version 2.0, Jandel Scientific, San Francisco, Calif., USA). […]

With Peginterferon alfa-2a as the substance, how does the “% Tumor Growth Inhibition” value read?
The value was “greater than 100%”.
